Earlier results in patent US8802861B2, “Thiazole derivatives and use thereof” (Merck Serono SA, priority 2004, dated 2014).
At least one structure is not confirmed: it was looked up by name or label, or the drawing left a doubt.

Legend:
CK2 protein kinase = settings: cited from earlier work
Class I PI3-kinases = settings: Fruman et al., 1998; read-out: IC50 against each of the Class I PI3-kinases; cited from earlier work

In the case of O=c1cc(N2CCOCC2)oc2c(-c3ccccc3)cccc12 [LY294002], the IC50 (CK2 protein kinase) is given as 5000 to 10000 µM and the IC50 (Class I PI3-kinases) is given as 15 to 20 µM.
